Measured values reported in PubChem BioAssay AID493014 (National Center for Advancing Translational Sciences (NCATS), 2011).
The other results are listed elsewhere or left out. The main result of the screen is listed elsewhere. These columns were measured beside it and carry no call. Most of these compounds were active or inconclusive in the main read-out, so they are no random draw. Words in brackets tell the shape of the fitted curve; partial curves, single points and poor fits give uncertain potencies.

Test: qHTS Assay to Find Inhibitors of Chronic Active B-Cell Receptor Signaling
Conditions: ABC-DLBCL IkBa-CBG/CBR reporter, luminescence ratio (green luciferase fused to IkBa over red control in TMD8 lymphoma cells), 4 h
Summary of the method: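 TMD8 human ABC-DLBCL cells with doxycycline-inducible IκBα–green luciferase fusion and unfused red luciferase, in 0.5% FBS medium; compounds up to 46 uM, 4 h at 37C. Green/red luminescence ratio, filter-overlap corrected, fitted to concentration-response curves.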

[1] = measured here: CBR red luminescence, cell number
[2] = measured here: IkBa-CBG green luminescence

| Structure (SMILES) | AC50 [1] | AC50 [2] |
| --- | --- | --- |
| CC(=O)Nc1ccc(S(=O)(=O)N2CCN(c3ccc(C)c(Cl)c3)CC2)cc1 | 3.26 µM [rising, full curve, poor fit] |  |
| CCOC(=O)c1cnc2ccc(OCC)cc2c1NCc1cccnc1 |  | 20.6 µM [rising, partial curve, poor fit] |
| CC(=O)N1CCc2cc(S(=O)(=O)CCC(=O)NCc3ccco3)ccc21 | 20 µM [falling, partial curve, poor fit] |  |
| COC(=O)c1ccc(CSc2ccc3nnc(-c4ccccc4)n3n2)o1 | 4.61 µM [falling, full curve, poor fit] |  |
| Cc1c(CN(C)C)c2c(n1Cc1ccccc1)C(=O)c1ccc(Br)cc1-2 | 29.1 µM [falling, single point] |  |
| O=C(NN=C(c1ccccc1)c1ccccn1)c1ccccc1 | 25.9 µM [rising, partial curve, poor fit] | 18.4 µM [falling, partial curve] |
| Cc1cccc(C(=O)O)c1[N+](=O)[O-] | 14.6 µM [rising, partial curve, poor fit] |  |
| Nc1ncc(Br)cc1S(=O)(=O)Nc1cc(C(F)(F)F)cc(C(F)(F)F)c1 | 6.31 µM [falling, full curve] |  |
| O=C(Oc1ccc(Cl)cc1)N1CCOCC1 | 14.1 µM [rising, single point] |  |
| CC(=O)Nc1nc(=O)c2ccccc2s1 | 3.16 µM [falling, partial curve, poor fit] |  |
| COc1nc(C)ccc1-c1noc(-c2ccncc2)n1 | 1.16 µM [rising, full curve, poor fit] |  |
| CCC(=O)NC(c1ccccc1)c1nc2ccccc2[nH]1 (stereo not drawn) | 29.1 µM [rising, partial curve, poor fit] |  |
| COCCN1Cc2cccc(C(=O)NC(C)CCc3ccco3)c2C1=O (stereo not drawn) | 20 µM [falling, partial curve, poor fit] |  |
| O=C(CSc1ccc(Br)cc1)NC1CCS(=O)(=O)C1 (stereo not drawn) | 4.61 µM [falling, full curve] |  |
| O=C(Cc1coc2ccc3ccccc3c12)Nc1nccs1 | 0.116 µM [falling, full curve, poor fit] |  |
| Nc1nc2ccccc2nc1N | 2.59 µM [falling, partial curve, poor fit] |  |
| CC(C)CC1NC(=S)N(Cc2ccccc2)C1=O (stereo not drawn) | 25.9 µM [falling, partial curve, poor fit] |  |
| O=C(NCCn1cc(SCc2ccccc2)c2ccccc21)c1c(F)cccc1F | 18.4 µM [falling, single point] |  |
| Nc1nc(Nc2cccc(F)c2)nc2ccccc12 | 0.398 µM [rising, full curve, poor fit] |  |
| Cc1[nH]c(=O)c(C(=O)/C=C/c2ccccc2F)c2c1CCCC2 | 3.16 µM [falling, full curve, poor fit] |  |

Rewritten tab-delimited: entries from further up
Structure (SMILES)	AC50 [1]	AC50 [2]
CC(=O)N1CCc2cc(S(=O)(=O)CCC(=O)NCc3ccco3)ccc21	20 µM [falling, partial curve, poor fit]	
Cc1c(CN(C)C)c2c(n1Cc1ccccc1)C(=O)c1ccc(Br)cc1-2	29.1 µM [falling, single point]	
O=C(NN=C(c1ccccc1)c1ccccn1)c1ccccc1	25.9 µM [rising, partial curve, poor fit]	18.4 µM [falling, partial curve]
Cc1cccc(C(=O)O)c1[N+](=O)[O-]	14.6 µM [rising, partial curve, poor fit]	
O=C(Oc1ccc(Cl)cc1)N1CCOCC1	14.1 µM [rising, single point]	
CC(=O)Nc1nc(=O)c2ccccc2s1	3.16 µM [falling, partial curve, poor fit]	
COc1nc(C)ccc1-c1noc(-c2ccncc2)n1	1.16 µM [rising, full curve, poor fit]	
COCCN1Cc2cccc(C(=O)NC(C)CCc3ccco3)c2C1=O (stereo not drawn)	20 µM [falling, partial curve, poor fit]	
Nc1nc(Nc2cccc(F)c2)nc2ccccc12	0.398 µM [rising, full curve, poor fit]	

Remaining list, next part.

| Structure (SMILES) | AC50 [1] | AC50 [2] |
| --- | --- | --- |
| CCOC(=O)C1=C(CC)Nc2ccccc2N=C1NC(=O)Nc1ccccc1OC | 0.082 µM [rising, full curve, poor fit] |  |
| CN(C)/C=C/C(=O)c1ccc(Cl)c([N+](=O)[O-])c1 | 7.94 µM [falling, partial curve] | 12.6 µM [rising, partial curve, poor fit] |
| COc1ccc(OC)c(-c2cc(C(=O)NCc3cccs3)no2)c1 | 8.2 µM [rising, partial curve, poor fit] | 16.4 µM [falling, partial curve, poor fit] |
| Cc1ccc2sc(N(CCN(C)C)C(=O)/C=C/c3cccs3)nc2c1C | 28.2 µM [falling, single point] |  |
| CCOc1cccc2sc(N(CCCN(C)C)C(=O)c3ccc(S(=O)(=O)N(C)Cc4ccccc4)cc3)nc12 | 25.1 µM [falling, single point] |  |
| CCNC(=O)COC(=O)c1cc(S(=O)(=O)N2CCCc3ccccc32)ccc1Cl | 7.94 µM [falling, single point] |  |
| Cn1nc([N+](=O)[O-])nc1Oc1ccc2ccccc2c1 | 13 µM [rising, partial curve, poor fit] |  |
| COc1cc(CN2CCN(C(c3ccccc3)c3ccccc3)CC2)cc(OC)c1OC | 7.08 µM [falling, full curve, poor fit] |  |
| Clc1cccc(C2CCN(Cc3nc(CC4CC4)no3)C2)c1 (stereo not drawn) | 35.5 µM [rising, single point] |  |
| COc1ccc(S(=O)(=O)/N=C2\C=C(NS(=O)(=O)c3ccccc3)C(=O)c3ccccc32)cc1 | 35.5 µM [falling, single point] |  |
| COc1cccc(NC2=C(C#N)C(=O)NC(c3cccc(OC)c3O)S2)c1 (stereo not drawn) | 11.2 µM [falling, single point] |  |
| CCn1c(SCC(=O)Nc2cccc(O)c2)nc2c1c(=O)n(C)c(=O)n2C | 22.4 µM [rising, partial curve, poor fit] | 7.08 µM [falling, partial curve, poor fit] |
| CC(=O)Nc1cccc(NC(=S)Nc2ccc(F)c(Cl)c2)c1 | 8.91 µM [rising, partial curve, poor fit] |  |
| CCN(C)c1ccc(/C=N\n2nnnc2N)cc1 | 1.64 µM [rising, partial curve] |  |
| Cc1c(NC(=O)/C(C#N)=C/c2ccc(-c3ccccc3Cl)o2)c(=O)n(-c2ccccc2)n1C |  | 23.1 µM [rising, partial curve, poor fit] |
| CNS(=O)(=O)c1cccc(C(=O)OCC(=O)c2cc(C)n(-c3ccc4c(c3)OCO4)c2C)c1 | 0.82 µM [falling, full curve, poor fit] |  |
| COc1cc(OC)cc(-c2sc3ccc(OC)cc3c2C#CCCO)c1 | 16.4 µM [falling, single point] |  |
| CCOC(=O)c1sc2nc(C)nc(NCc3cccnc3)c2c1C | 35.5 µM [falling, single point] |  |
| COc1ccc(/C=c2\s/c(=C/C(=O)c3ccc(C)cc3)[nH]c2=O)cc1OC | 20.6 µM [falling, partial curve, poor fit] |  |
